# Structures can show the parent of a compound that is named as a salt. This is one part of the list. Many values rest on one well or one pass, so single values are uncertain.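 Three clinical Candida auris isolates (clades III, IV and I) from the CDC resistance isolate bank were grown in RPMI-1640 at 35°C. Growth was background-corrected OD600 relative to same-plate vehicle-only wells. Hits required over 50% inhibition in at least two strains and a plate-corrected B-score above 0.1.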
# What was measured:
# Assay in all cases: growth relative to vehicle control (OD600 ratio) (fraction); higher = less inhibition
# Details in all cases: 24 h
# [1] = system: C. auris AR-384
# [2] = system: C. auris AR-386
# [3] = system: C. auris AR-387
SMILES,growth ([1]; 1 µM),growth ([1]; 10 µM),growth ([2]; 1 µM),growth ([2]; 10 µM),growth ([3]; 1 µM),growth ([3]; 10 µM)
Cc1c(N(C)C)c(=O)n(-c2ccccc2)n1C [Amidopyrine],0.87,0.84,0.61,0.85,0.83,0.75
NC[C@H](O)c1ccc(O)c(O)c1 [Noradrenaline bitartrate monohydrate],1.32,1.12,0.89,1.04,0.81,1.1
OCCN(CCO)c1nc(N2CCCCC2)c2nc(N(CCO)CCO)nc(N3CCCCC3)c2n1 [Dipyridamole],1.07,0.89,0.95,0.88,0.73,0.68
CCC[C@@H]1C[C@@H](C(=O)N[C@@H]([C@H]2O[C@H](SC)[C@H](O)[C@@H](O)[C@H]2O)[C@H](C)Cl)N(C)C1 [Clindamycin],1.34,1.33,1.34,1.38,1.36,1.25
Cc1cnc(C(=O)O)c[n+]1[O-] [Acipimox],0.72,0.84,0.82,0.63,0.66,0.99
O=S(=O)(O)CCS [Mesna],1.02,0.83,0.69,0.85,1.25,0.85
CCN(CCCOc1ccc2c(Nc3cc(CC(=O)Nc4cccc(F)c4)[nH]n3)ncnc2c1)CCOP(=O)(O)O [Barasertib (AZD1152-HQPA)],1.05,1.04,1.37,0.65,0.89,0.93
Nc1nc2[nH]cnc2c(=S)[nH]1 [Thioguanine],0.98,0.79,0.74,0.7,0.62,0.64
CC[C@H]1OC(=O)[C@H](C)[C@@H](O[C@H]2C[C@@](C)(OC)[C@@H](O)[C@H](C)O2)[C@H](C)[C@@H](O[C@@H]2O[C@H](C)C[C@H](N(C)C)[C@H]2O)[C@](C)(O)C[C@@H](C)C(=O)[C@H](C)[C@H]2OC(=O)O[C@@]21C [Erythromycin Cyclocarbonate],0.94,0.9,0.88,0.9,0.95,1.11
O=C(O)C(=O)O.[NH-][C@@H]1CCCC[C@H]1[NH-].[Pt+2] [Oxaliplatin],0.67,0.92,1.17,0.92,0.76,0.85
Cc1onc(-c2ccccc2)c1C(=O)N[C@@H]1C(=O)N2[C@@H]1SC(C)(C)[C@@H]2C(=O)O [Oxacillin sodium monohydrate],1.33,1.39,1.11,0.82,0.84,1.24
Nc1ccc2cc3ccc(N)cc3nc2c1 [Proflavine Hemisulfate],1.23,1.31,1.15,1.16,1.01,1.03
C[C@]12C=CC(=O)C=C1CC[C@@H]1[C@@H]2[C@@H](O)C[C@@]2(C)[C@H]1CC[C@]2(O)C(=O)CO [Prednisolone],0.49,0.56,0.69,0.88,0.76,0.76
CC(C)(C)CC(C)(C)c1ccc(O)c(Cc2ccc(Cl)cc2Cl)c1 [Clofoctol],1.44,0.99,0.92,0.89,1.1,0.68
Cc1cc(C)nc(NS(=O)(=O)c2ccc(N)cc2)n1 [Sulfamethazine],0.91,1.07,1.05,0.98,0.8,1.02
COc1cc2c(Oc3ccc(NC(=O)C4(C(=O)Nc5ccc(F)cc5)CC4)cc3F)ccnc2cc1OCCCN1CCOCC1,1.06,1.29,1.22,0.99,1.11,1.29
C#CCC(Cc1cnc2nc(N)nc(N)c2n1)c1ccc(C(=O)N[C@@H](CCC(=O)O)C(=O)O)cc1 (stereo partly drawn) [Pralatrexate],1.02,1.05,1.18,1.27,1.08,1.15
COc1ccccc1OCCNCC(O)COc1cccc2[nH]c3ccccc3c12 (stereo not drawn) [Carvedilol],0.76,0.92,0.91,1,0.95,0.94
CC(C)(C)c1nc(-c2cccc(NS(=O)(=O)c3c(F)cccc3F)c2F)c(-c2ccnc(N)n2)s1,1.1,0.85,0.94,0.65,0.72,1.11
O=C(/C=C/c1cccc(S(=O)(=O)Nc2ccccc2)c1)NO [Belinostat (PXD101)],0.83,1.23,0.98,0.87,0.8,1.2
Cn1nnc(-c2ccc(-c3ccc(N4C[C@H](COP(=O)(O)O)OC4=O)cc3F)cn2)n1 [Tedizolid Phosphate],0.77,0.75,0.84,0.81,1.07,0.93
CCCCOc1cc(C(=O)NCCN(CC)CC)c2ccccc2n1 [Dibucaine HCl],0.85,0.71,0.7,0.88,0.72,0.74
C[C@H]1C[C@H]2[C@@H]3CCC4=CC(=O)C=C[C@]4(C)[C@H]3C(=O)C[C@]2(C)[C@@]1(O)C(=O)CO [Meprednisone],1,1.44,1.26,0.69,0.88,0.92

# Full records from above. Order of values: growth ([1]; 1 µM)	growth ([1]; 10 µM)	growth ([2]; 1 µM)	growth ([2]; 10 µM)	growth ([3]; 1 µM)	growth ([3]; 10 µM)
# COc1cc2c(Oc3ccc(NC(=O)C4(C(=O)Nc5ccc(F)cc5)CC4)cc3F)ccnc2cc1OCCCN1CCOCC1 as listed: 1.06	1.29	1.22	0.99	1.11	1.29
# Cc1c(N(C)C)c(=O)n(-c2ccccc2)n1C [Amidopyrine] as listed: 0.87	0.84	0.61	0.85	0.83	0.75

# — the supplement of paper PMC10470496
